The list shows a part of the results. Further columns of the screen follow, without active or inactive calls. Most of these compounds were active or inconclusive in the main read-out, so they are no random draw. Words in brackets tell the shape of the fitted curve; partial curves, single points and poor fits give uncertain potencies.
Assay: qHTS Assay for Lipid Storage Modulators in Drosophila S3 Cells;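 on cell number change: cells counted by Cell Tracker Red CMTPX staining in the red channel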
Conditions: BODIPY lipid droplet fluorescence, 18-24 h; for cell number change: measured here: cell count max response, cells fed with added oleic acid
Method in brief: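 Laser-scanning cytometry quantifies lipid droplet accumulation (500–530 nm total intensity; droplet/cell object ratio) in oleic acid-fed (400 uM added) Drosophila S3 cells treated with a concentration series. 20 uM Triacsin C defined 100% inhibition.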

[1] = measured here: cell number channel AC50, cells fed with added oleic acid
[2] = measured here: lipid fluorescence (Fed channel) AC50, cells fed with added oleic acid

SMILES | cell number change | AC50 [1] | AC50 [2]
COc1cc(OC)cc(OC(=O)C2CCN(C(=O)c3ccc(F)cc3)CC2)c1 | -46.7% | 36.6 µM [falling, single point] | 3.66 µM [falling, partial curve, poor fit]
Cc1ccc(NC(=O)c2ccc3nccnc3c2)c(C)c1 | -4.58% |  | 
O=C(NNC(=O)C12CC3CC(CC(Cl)(C3)C1)C2)c1ccncc1 | -8% |  | 6.51 µM [rising, single point]
Nc1ccccc1SSc1ccccc1N | -70% | 16.4 µM [falling, single point] | 9.2 µM [falling, partial curve]
CCc1nnc(NC(=O)c2nc(S(=O)(=O)Cc3ccc(C)cc3)ncc2Cl)s1 | -32.3% | 2.06 µM [falling, full curve, poor fit] | 5.8 µM [falling, full curve]
C=CC[N+](C)(C)CCCNC(=O)/C=N/O | -5.43% |  | 
COc1ccc(-n2cnnc2SCc2ncc(-c3ccccc3)o2)cc1 | -4.38% |  | 
COc1cc(C(=O)NCC(=O)NCCN2C(=O)S/C(=C\c3ccc4c(c3)OCO4)C2=O)cc(OC)c1OC | -42.9% | 9.2 µM [falling, partial curve] | 16.4 µM [falling, partial curve]
COc1ccc(NC(=O)c2cccc(NC(=O)c3ccco3)c2)c(OC)c1 | 3.71% | 0.206 µM [rising, full curve, poor fit] | 2.91 µM [rising, partial curve]
COC(=O)c1ccc(CSc2nc(-c3ccco3)cc(C(F)(F)F)n2)o1 | -32.8% | 32.6 µM [falling, single point] | 
Cc1ccccc1CC(=O)NCC1CCCCC1 | 1.65% |  | 29.1 µM [rising, single point]
O=C1CN(C(=O)NCC(=O)N[C@@H](Cc2ccccc2)C(=O)O)c2ccccc2N1 | 41.7% | 23.1 µM [rising, partial curve, poor fit] | 
CCOc1ccccc1N1CCN(c2ncnc3scc(-c4ccc(OC)cc4)c23)CC1 | -7.75% |  | 3.16 µM [rising, single point]
CCOC(=O)c1sc(NC(=O)CCN2CCOCC2)c(C(=O)OCC)c1C | -7.24% |  | 2.31 µM [rising, single point]
CCOC(=O)c1c(C)[nH]c(C(=O)C(C)OC(=O)c2oc3ccccc3c2COC)c1C (centres undefined) | 78.6% | 13 µM [rising, partial curve] | 
Cc1nnc(SCC(=O)N2CCc3ccccc3C2)n1-c1ccccc1 | -4.66% |  | 1.64 µM [falling, partial curve]

For reference, some entries already given.
SMILES | cell number change | AC50 [1] | AC50 [2]
COC(=O)c1ccc(CSc2nc(-c3ccco3)cc(C(F)(F)F)n2)o1 | -32.8% | 32.6 µM [falling, single point] | 
Cc1ccccc1CC(=O)NCC1CCCCC1 | 1.65% |  | 29.1 µM [rising, single point]

Source: PubChem BioAssay AID2685 (National Center for Advancing Translational Sciences (NCATS), 2010)
